# Source: the supplement of paper PMC8728848
# Some of the results follow.
# What was measured:
# Assay in all cases: glycan array binding signal (z-score within array); higher = stronger binding
# Settings in all cases: glycan notation: IUPAC condensed, linker removed
# [1] = target: Fuc(a1-3)[Gal3S(b1-4)]Glc6S
# In short: (§1)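 Glycan array data came from 3228 arrays in the Consortium for Functional Glycomics database, and only arrays with an available protein sequence were kept. Glycan names were put into IUPAC-condensed notation, and columns mapping to the same glycan were averaged. The binding signal is a within-array Z-score, averaged across arrays of one protein sequence run at different concentrations or buffers and across linkers. A negative Z-score can be read as non-binding.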
# [2] = target: Fuc(a1-3)[Gal3S(b1-4)]GlcNAc
# In short: as §1
# [3] = target: Fuc(a1-3)[Gal3S(b1-4)]GlcNAc6S
# In short: as §1
# [4] = target: Fuc(a1-3)[GalNAc(b1-4)]GlcNAc
# In short: as §1
# [5] = target: Fuc(a1-3)[GalNAc(b1-4)]GlcNAc6S
# In short: as §1
# [6] = target: Fuc(a1-4)GlcNAc
# In short: as §1
# [7] = target: Fuc(b1-3)GlcNAc
# In short: as §1
# [8] = target: Gal(a1-2)Gal
# In short: as §1
# [9] = target: Gal(a1-3)Gal
# In short: as §1
# [10] = target: Gal(a1-3)Gal(b1-3)GlcNAc
# In short: as §1
# [11] = target: Gal(a1-3)Gal(b1-3)GlcNAc(b1-2)Man
# In short: as §1
# [12] = target: Gal(a1-3)Gal(b1-3)GlcNAc(b1-2)Man(a1-3)[Gal(a1-3)Gal(b1-3)GlcNAc(b1-2)Man(a1-6)]Man(b1-4)GlcNAc(b1-4)GlcNAc
# In short: as §1
# [13] = target: Gal(a1-3)Gal(b1-3)GlcNAc(b1-3)GalNAc
# In short: as §1
# [14] = target: Gal(a1-3)Gal(b1-3)GlcNAc(b1-6)GalNAc
# In short: as §1
# [15] = target: Gal(a1-3)Gal(b1-3)[Fuc(a1-4)]GlcNAc(b1-2)Man(a1-3)[Gal(a1-3)Gal(b1-3)[Fuc(a1-4)]GlcNAc(b1-2)Man(a1-6)]Man(b1-4)GlcNAc(b1-4)GlcNAc
# In short: as §1
# [16] = target: Gal(a1-3)Gal(b1-4)Glc
# In short: as §1
# [17] = target: Gal(a1-3)Gal(b1-4)GlcNAc
# In short: as §1
# [18] = target: Gal(a1-3)Gal(b1-4)GlcNAc(b1-2)Man
# In short: as §1
# [19] = target: Gal(a1-3)Gal(b1-4)GlcNAc(b1-2)Man(a1-3)[Gal(a1-3)Gal(b1-4)GlcNAc(b1-2)Man(a1-6)]Man(b1-4)GlcNAc(b1-4)GlcNAc
# In short: as §1
# [20] = target: Gal(a1-3)Gal(b1-4)GlcNAc(b1-3)GalNAc
# In short: as §1
# [21] = target: Gal(a1-3)Gal(b1-4)GlcNAc(b1-6)GalNAc
# In short: as §1
# [22] = target: Gal(a1-3)Gal(b1-4)[Fuc(a1-3)]GlcNAc
# In short: as §1
# [23] = target: Gal(a1-3)Gal(b1-4)[Fuc(a1-3)]GlcNAc(b1-2)Man(a1-3)[Gal(a1-3)Gal(b1-4)[Fuc(a1-3)]GlcNAc(b1-2)Man(a1-6)]Man(b1-4)GlcNAc(b1-4)GlcNAc
# In short: as §1
# [24] = target: Gal(a1-3)GalNAc
# In short: as §1
# [25] = target: Gal(a1-3)[Gal(a1-4)]Gal(b1-4)GlcNAc
# In short: as §1
# [26] = target: Gal(a1-4)Gal(b1-3)GlcNAc(b1-2)Man(a1-3)[Gal(a1-4)Gal(b1-3)GlcNAc(b1-2)Man(a1-6)]Man(b1-4)GlcNAc(b1-4)GlcNAc
# In short: as §1
# [27] = target: Gal(a1-4)Gal(b1-4)Glc
# In short: as §1
# [28] = target: Gal(a1-4)Gal(b1-4)GlcNAc
# In short: as §1
# [29] = target: Gal(a1-4)Gal(b1-4)GlcNAc(b1-2)Man(a1-3)[Gal(a1-4)Gal(b1-4)GlcNAc(b1-2)Man(a1-6)]Man(b1-4)GlcNAc(b1-4)GlcNAc
# In short: as §1
# [30] = target: Gal(a1-4)Gal(b1-4)GlcNAc(b1-3)Gal(b1-4)Glc
# In short: as §1
# [31] = target: Gal(a1-4)GlcNAc
# In short: as §1
# [32] = target: Gal(a1-6)Glc
# In short: as §1
# [33] = target: Gal(b1-2)Gal
# In short: as §1
# [34] = target: Gal(b1-3)Gal
# In short: as §1
# [35] = target: Gal(b1-3)Gal(b1-4)GlcNAc
# In short: as §1
# [36] = target: Gal(b1-3)Gal(b1-4)GlcNAc(b1-2)Man(a1-3)[Gal(b1-3)Gal(b1-4)GlcNAc(b1-2)Man(a1-6)]Man(b1-4)GlcNAc(b1-4)GlcNAc
# In short: as §1
# [37] = target: Gal(b1-3)GalNAc
# In short: as §1
# [38] = target: Gal(b1-3)GalNAc(a1-3)[Fuc(a1-2)]Gal(b1-4)Glc
# In short: as §1
binder,measurement,setting,value
GST Gap3 (Streptococcus parasanguinis) (protein) MTKQLISEIYWNEIRKGENYLYGSQIKFQEDLVNFYNPQLASGKPIVTFKSRTNYQGDRHSPDLPILIQGNRYLLEYQIDAVPANSFFLQLDFFNRQAEQIESIVLRNSGESFIFPKDTFTYTLTLMSAGCQSVTYQKFMIYDINDEEKKNHIVENRYLRELLPKDLDLVKNLIEYI,glycan array binding signal (z-score),[1],-0.1
same,glycan array binding signal (z-score),[2],-0.269
same,glycan array binding signal (z-score),[3],0.531
same,glycan array binding signal (z-score),[4],-0.383
same,glycan array binding signal (z-score),[5],0.226
same,glycan array binding signal (z-score),[6],-0.387
same,glycan array binding signal (z-score),[7],-0.437
same,glycan array binding signal (z-score),[8],-0.168
same,glycan array binding signal (z-score),[9],0.127
same,glycan array binding signal (z-score),[10],-0.139
same,glycan array binding signal (z-score),[11],-0.239
same,glycan array binding signal (z-score),[12],1.57
same,glycan array binding signal (z-score),[13],0.415
same,glycan array binding signal (z-score),[14],-0.062
same,glycan array binding signal (z-score),[15],0.8
same,glycan array binding signal (z-score),[16],0.099
same,glycan array binding signal (z-score),[17],0.188
same,glycan array binding signal (z-score),[18],-0.118
same,glycan array binding signal (z-score),[19],-0.248
same,glycan array binding signal (z-score),[20],-0.262
same,glycan array binding signal (z-score),[21],-0.054
same,glycan array binding signal (z-score),[22],0.885
same,glycan array binding signal (z-score),[23],0.16
same,glycan array binding signal (z-score),[24],-0.06
same,glycan array binding signal (z-score),[25],0.146
same,glycan array binding signal (z-score),[26],0.18
same,glycan array binding signal (z-score),[27],-0.1
same,glycan array binding signal (z-score),[28],-0.282
same,glycan array binding signal (z-score),[29],0.15
same,glycan array binding signal (z-score),[30],-0.218
same,glycan array binding signal (z-score),[31],-0.054
same,glycan array binding signal (z-score),[32],0.127
same,glycan array binding signal (z-score),[33],-0.158
same,glycan array binding signal (z-score),[34],-0.235
same,glycan array binding signal (z-score),[35],-0.092
same,glycan array binding signal (z-score),[36],1.9
same,glycan array binding signal (z-score),[37],-0.182
same,glycan array binding signal (z-score),[38],-0.333

# Shown with tabs: entries from further up
binder	measurement	setting	value
GST Gap3 (Streptococcus parasanguinis) (protein) MTKQLISEIYWNEIRKGENYLYGSQIKFQEDLVNFYNPQLASGKPIVTFKSRTNYQGDRHSPDLPILIQGNRYLLEYQIDAVPANSFFLQLDFFNRQAEQIESIVLRNSGESFIFPKDTFTYTLTLMSAGCQSVTYQKFMIYDINDEEKKNHIVENRYLRELLPKDLDLVKNLIEYI	glycan array binding signal (z-score)	[10]	-0.139
same	glycan array binding signal (z-score)	[11]	-0.239
same	glycan array binding signal (z-score)	[12]	1.57
